Measured values as given in PMC12866690.
No constants are given. Whether binding was seen depends on the method and setting. In cells and extracts the contact can be indirect. Binding can be weak; no strength is given.

How the values were obtained:
[1] = target: Syntaxin 3B (mouse (endogenous in retina)); experiment: co-IP; anti-STX3B antibody and protein G beads; retinal lysates of light- and dark-adapted P30 WT mice; 20 mM HEPES pH 7.4, 150 mM NaCl, 10 mM CHAPS; 200 µg protein; immunoblot
[2] = target: GST-tagged STX3 lacking the transmembrane domain; experiment: pull-down; GST-STX3-dtm on Glutathione Sepharose beads; precleared retinal lysates of light- and dark-adapted P30 WT and Nrl-/- mice; 10 mM CHAPS, 5 mM EDTA in 1xPBS pH 7.3; overnight at 4 °C; immunoblot; only the target purified

B1: cone arrestin 4 (protein, UniProt Q9EQP6 1-381)
chain: MSTVFKKTSSNGKFSIYLGKRDFVDDVDTVEPIDGVVLVDPEYLEGRKLFVRLTCAFRYGRDDLDVIGLTFRKDLYVQTKQVAPAEPTSIQGPLTALQERLLHKLGVNAYPFTLQMVANLPCSVTLQPGPEDSGKPCGVDFEVKSFCAENLEEKIPKSDSVQLVVRKVQFSALEPGPGPSAQTIRSFFLSSQPLQLQAWMDREVHYHGEAISVHVSINNYTNKVIRRIKIAVVQTTDVVLYSLDKYTKTVFVQEFTETVAANSSFSQTFAVTPLLAANCQKQGLALDGKLKHEDTNLASSTILRPGMNKELLGILVSYKVRVNLVVSYGGILGGLPASDVGVELPVILIHPKPSPGERAVATSSEDIVIEEFMQHNSQTQS
binding [1]: binds | binding [2]: binds
